According to the supplement of paper PMC11006884:
This is a selection; strong and weak results do not stand in their true shares.

By UniProt entry, the sequences of proteins in these tests, tags left out. Where a name states a change or a piece, a line headed by the entry shows the natural chain unless it says otherwise.
UniProt Q9ULH0: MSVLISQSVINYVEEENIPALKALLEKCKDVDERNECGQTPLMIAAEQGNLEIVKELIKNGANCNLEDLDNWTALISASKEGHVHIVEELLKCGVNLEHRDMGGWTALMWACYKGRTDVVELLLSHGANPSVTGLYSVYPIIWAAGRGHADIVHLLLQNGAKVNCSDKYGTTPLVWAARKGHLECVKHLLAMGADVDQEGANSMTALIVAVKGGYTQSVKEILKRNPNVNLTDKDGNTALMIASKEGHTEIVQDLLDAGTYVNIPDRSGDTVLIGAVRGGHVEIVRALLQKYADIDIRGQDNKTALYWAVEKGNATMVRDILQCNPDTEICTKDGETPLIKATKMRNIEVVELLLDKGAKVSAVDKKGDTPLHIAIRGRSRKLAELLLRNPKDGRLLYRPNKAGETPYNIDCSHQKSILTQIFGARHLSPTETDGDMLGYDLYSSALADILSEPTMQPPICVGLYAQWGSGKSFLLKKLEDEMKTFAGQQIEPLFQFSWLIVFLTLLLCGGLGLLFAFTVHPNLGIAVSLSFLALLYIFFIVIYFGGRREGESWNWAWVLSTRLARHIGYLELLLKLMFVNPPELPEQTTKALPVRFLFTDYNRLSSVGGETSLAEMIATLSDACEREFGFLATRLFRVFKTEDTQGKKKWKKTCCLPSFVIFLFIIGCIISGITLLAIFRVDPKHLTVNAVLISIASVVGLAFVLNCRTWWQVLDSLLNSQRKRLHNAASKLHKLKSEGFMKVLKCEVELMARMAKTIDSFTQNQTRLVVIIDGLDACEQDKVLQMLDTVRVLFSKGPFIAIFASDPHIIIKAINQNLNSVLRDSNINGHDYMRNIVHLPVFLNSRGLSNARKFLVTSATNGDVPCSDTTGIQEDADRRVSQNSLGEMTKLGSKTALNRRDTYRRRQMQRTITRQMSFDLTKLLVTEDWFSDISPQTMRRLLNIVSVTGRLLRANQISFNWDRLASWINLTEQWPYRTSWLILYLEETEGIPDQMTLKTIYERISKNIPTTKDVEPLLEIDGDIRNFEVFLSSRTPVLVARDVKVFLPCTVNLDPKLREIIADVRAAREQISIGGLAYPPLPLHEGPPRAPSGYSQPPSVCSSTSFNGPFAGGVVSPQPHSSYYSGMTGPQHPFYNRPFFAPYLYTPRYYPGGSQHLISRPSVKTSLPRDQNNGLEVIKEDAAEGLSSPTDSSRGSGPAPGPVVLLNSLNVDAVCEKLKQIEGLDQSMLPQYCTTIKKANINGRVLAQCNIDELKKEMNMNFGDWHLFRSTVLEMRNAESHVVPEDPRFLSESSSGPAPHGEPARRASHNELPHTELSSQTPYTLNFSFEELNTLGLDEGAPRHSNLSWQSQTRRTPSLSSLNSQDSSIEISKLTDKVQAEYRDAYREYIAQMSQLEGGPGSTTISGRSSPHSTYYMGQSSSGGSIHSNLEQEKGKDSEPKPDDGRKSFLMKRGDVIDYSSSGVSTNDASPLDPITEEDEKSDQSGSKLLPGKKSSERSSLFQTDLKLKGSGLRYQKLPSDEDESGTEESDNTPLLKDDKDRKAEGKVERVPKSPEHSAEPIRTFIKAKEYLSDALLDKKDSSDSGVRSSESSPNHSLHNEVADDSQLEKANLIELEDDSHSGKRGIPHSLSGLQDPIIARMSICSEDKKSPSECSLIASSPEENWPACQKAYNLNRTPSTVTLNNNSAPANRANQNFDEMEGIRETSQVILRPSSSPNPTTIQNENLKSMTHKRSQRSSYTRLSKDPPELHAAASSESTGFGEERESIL
UniProt Q9UHD1: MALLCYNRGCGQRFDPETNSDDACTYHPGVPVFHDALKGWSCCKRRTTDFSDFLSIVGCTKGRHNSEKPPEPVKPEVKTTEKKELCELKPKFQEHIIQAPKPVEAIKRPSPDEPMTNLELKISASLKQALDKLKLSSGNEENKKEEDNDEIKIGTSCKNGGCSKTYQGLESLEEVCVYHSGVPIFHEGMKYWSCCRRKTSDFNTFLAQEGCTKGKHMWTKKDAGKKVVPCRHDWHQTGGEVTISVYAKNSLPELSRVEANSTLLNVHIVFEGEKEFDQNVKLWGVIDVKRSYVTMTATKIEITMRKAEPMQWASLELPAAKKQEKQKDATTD
UniProt Q9UJW0, whole entry, looked up: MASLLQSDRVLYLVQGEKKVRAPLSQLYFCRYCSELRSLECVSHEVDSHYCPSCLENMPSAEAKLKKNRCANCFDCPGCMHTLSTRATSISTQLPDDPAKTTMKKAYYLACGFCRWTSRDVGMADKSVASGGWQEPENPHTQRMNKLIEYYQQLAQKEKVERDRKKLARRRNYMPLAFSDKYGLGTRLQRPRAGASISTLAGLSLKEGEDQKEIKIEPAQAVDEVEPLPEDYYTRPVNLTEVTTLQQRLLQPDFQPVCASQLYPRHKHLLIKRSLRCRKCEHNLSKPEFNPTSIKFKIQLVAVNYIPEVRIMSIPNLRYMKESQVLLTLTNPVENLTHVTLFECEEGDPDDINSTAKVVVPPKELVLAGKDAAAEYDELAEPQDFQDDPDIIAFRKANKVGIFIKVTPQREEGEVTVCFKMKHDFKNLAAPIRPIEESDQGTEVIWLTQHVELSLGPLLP
UniProt Q9Y383: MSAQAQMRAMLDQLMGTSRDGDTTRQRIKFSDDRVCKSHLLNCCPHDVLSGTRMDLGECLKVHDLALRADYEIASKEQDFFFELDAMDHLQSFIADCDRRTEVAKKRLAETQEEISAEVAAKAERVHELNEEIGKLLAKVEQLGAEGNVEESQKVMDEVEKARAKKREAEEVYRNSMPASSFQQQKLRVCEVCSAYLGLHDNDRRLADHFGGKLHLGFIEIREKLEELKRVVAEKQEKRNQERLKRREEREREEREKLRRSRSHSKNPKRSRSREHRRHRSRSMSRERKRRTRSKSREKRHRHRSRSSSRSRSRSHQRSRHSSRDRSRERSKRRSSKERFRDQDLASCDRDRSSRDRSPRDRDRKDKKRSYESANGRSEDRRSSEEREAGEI
UniProt Q9Y3Z3: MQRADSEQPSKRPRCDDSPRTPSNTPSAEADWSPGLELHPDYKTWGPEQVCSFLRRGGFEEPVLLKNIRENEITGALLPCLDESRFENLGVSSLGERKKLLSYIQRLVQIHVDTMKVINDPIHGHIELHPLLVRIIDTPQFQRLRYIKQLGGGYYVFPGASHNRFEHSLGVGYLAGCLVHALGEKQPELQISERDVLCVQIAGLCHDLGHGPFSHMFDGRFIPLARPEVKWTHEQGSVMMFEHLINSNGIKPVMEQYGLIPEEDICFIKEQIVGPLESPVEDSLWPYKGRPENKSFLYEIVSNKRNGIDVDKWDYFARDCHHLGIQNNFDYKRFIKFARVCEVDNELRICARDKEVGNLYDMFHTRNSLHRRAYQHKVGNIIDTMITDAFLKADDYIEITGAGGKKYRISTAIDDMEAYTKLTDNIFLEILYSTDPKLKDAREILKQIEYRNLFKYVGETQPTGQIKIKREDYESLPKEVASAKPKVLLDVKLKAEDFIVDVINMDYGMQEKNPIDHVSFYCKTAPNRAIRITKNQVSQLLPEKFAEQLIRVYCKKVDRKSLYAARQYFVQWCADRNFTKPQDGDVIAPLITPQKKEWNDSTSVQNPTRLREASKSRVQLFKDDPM
UniProt Q9Y2X3: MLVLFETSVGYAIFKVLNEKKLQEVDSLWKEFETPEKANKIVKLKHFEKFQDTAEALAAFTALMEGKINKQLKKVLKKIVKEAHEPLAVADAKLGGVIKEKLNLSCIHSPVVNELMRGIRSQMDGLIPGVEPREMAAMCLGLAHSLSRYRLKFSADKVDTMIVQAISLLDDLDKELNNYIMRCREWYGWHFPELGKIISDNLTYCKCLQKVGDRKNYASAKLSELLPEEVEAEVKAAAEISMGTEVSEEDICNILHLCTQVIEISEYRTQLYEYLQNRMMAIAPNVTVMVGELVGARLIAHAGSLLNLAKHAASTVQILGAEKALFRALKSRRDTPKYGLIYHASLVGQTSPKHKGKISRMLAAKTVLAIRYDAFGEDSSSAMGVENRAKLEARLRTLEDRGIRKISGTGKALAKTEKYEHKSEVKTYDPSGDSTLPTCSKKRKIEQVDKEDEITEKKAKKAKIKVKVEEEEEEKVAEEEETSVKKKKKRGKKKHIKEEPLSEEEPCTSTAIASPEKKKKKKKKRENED
UniProt Q9UJV9: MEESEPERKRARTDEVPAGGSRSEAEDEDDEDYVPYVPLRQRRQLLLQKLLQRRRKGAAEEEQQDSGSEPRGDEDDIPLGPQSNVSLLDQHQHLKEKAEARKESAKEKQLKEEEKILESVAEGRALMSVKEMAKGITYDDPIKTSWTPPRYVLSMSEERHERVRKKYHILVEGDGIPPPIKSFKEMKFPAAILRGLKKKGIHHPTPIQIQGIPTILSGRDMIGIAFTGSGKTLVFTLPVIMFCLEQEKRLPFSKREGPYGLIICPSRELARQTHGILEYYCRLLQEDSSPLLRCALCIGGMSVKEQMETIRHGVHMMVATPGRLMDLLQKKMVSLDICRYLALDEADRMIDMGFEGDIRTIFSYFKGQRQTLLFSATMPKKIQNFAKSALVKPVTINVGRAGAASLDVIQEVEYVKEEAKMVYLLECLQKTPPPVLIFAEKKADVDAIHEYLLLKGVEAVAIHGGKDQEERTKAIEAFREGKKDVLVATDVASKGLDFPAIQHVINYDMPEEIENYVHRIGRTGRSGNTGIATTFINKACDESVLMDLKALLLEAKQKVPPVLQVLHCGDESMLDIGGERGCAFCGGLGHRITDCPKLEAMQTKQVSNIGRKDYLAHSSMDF
UniProt Q9UKV3: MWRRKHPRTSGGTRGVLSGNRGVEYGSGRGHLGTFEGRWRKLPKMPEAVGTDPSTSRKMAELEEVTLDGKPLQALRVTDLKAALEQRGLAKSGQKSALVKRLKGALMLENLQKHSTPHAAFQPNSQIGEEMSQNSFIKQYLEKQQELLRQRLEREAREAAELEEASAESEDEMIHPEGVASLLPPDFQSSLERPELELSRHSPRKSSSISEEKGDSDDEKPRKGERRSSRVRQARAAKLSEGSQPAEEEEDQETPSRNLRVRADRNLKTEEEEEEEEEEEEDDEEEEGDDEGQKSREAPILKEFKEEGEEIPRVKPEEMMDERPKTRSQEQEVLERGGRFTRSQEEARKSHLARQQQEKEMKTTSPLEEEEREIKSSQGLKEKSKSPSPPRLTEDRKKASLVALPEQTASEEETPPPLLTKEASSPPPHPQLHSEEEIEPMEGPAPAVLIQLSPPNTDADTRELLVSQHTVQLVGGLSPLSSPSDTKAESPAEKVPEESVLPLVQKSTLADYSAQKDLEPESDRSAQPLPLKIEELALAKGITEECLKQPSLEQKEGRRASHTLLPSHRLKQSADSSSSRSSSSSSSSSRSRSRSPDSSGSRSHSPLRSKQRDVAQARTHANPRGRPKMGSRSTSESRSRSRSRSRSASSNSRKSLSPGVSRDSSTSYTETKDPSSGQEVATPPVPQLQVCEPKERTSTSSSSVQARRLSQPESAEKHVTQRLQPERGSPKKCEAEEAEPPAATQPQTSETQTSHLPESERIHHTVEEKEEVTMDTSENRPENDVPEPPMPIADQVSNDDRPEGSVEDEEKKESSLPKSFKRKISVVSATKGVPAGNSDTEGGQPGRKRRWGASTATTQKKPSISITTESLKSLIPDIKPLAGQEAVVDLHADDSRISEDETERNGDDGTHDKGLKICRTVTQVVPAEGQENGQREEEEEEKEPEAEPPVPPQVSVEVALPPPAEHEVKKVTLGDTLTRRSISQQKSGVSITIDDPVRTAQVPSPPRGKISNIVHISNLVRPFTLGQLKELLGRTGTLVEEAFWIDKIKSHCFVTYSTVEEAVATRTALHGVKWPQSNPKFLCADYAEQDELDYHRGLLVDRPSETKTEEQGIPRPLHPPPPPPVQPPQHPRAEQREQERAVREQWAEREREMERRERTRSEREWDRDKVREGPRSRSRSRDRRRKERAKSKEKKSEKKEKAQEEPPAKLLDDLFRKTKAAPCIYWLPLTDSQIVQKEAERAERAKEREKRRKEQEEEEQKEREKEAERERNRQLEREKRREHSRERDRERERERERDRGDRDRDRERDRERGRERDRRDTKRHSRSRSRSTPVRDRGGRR
UniProt Q9UNH7: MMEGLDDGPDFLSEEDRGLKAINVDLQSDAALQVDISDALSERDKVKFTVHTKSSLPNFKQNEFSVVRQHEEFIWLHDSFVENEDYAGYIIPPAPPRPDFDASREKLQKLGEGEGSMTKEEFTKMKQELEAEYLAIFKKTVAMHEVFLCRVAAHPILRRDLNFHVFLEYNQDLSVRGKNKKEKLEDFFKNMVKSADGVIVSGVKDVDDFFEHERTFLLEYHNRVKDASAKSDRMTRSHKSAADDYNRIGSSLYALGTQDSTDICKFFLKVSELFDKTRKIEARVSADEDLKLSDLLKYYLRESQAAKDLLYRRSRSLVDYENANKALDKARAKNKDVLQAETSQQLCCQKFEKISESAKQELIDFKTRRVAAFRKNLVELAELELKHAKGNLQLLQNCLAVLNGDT

compound: COC(=O)C#Cc1ccccc1 [methyl 3-phenylpropiolate]; assay: log2 ratio of iodoacetamide-alkyne labeling of the cysteine site, DMSO over compound (competition); higher = stronger covalent engagement of the cysteine by the compound, active = 1 or more; settings: 500 µM; treatment time 1 h; system: HEK293T cell lysate
In short: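 The log2 competition ratio per cysteine is defined as mean reporter intensity in control channels over mean reporter intensity in compound channels. Lysate from HEK293T cells (2 mg/mL) received electrophile (500 µM) or vehicle for 1 h at ambient temperature, followed by iodoacetamide alkyne for 1 h. Samples were clicked to sCIP-TMT reagents, pooled, trypsin-digested overnight at 37 °C, streptavidin-enriched, acid-eluted and run on Orbitrap Eclipse LC-MS/MS with FAIMS, with quantification in FragPipe. Three replicates with duplicate channels were used, and any cysteine quantified in only one replicate was excluded.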

log2 ratio of iodoacetamide-alkyne labeling, inactive:
GMEB2 C323 (UniProt Q9UKD1) 0.274
KIDINS220 C412 (UniProt Q9ULH0) 0.0082
SH3GLB1 C121 (UniProt Q9Y371) 0.455
CHORDC1 C5 (UniProt Q9UHD1) -0.0481
DCTN4 C41 (UniProt Q9UJW0) 0.309
LUC7L2 C43 (UniProt Q9Y383) -0.0371
PRPF19 C114 (UniProt Q9UMS4) 0.209
GTF3C4 C129 (UniProt Q9UKN8) 0.717
USP24 C1628 (UniProt Q9UPU5) 0.657
SAMHD1 C522 (UniProt Q9Y3Z3) 0.0954
NOP58 C139 (UniProt Q9Y2X3) 0.118
DDX41 C568 (UniProt Q9UJV9) 0.462
ACIN1 C546 (UniProt Q9UKV3) 0.343
UniProt Q9ULE6_C845 0.84
SNX6 C348 (UniProt Q9UNH7) 0.0168

No new results follow: an excerpt of the list.
log2 ratio of iodoacetamide-alkyne labeling, inactive:
UniProt Q9ULE6_C845 0.84
SNX6 C348 (UniProt Q9UNH7) 0.0168
